# In all, about 33,000 sequences were measured (“E-score (-0.5 to 0.5)”: median about -0.0014, highest 2% from about 0.25 on). Some of the results follow.
# Target: T1, Cad1 (UniProt P24813)
# T1 sequence: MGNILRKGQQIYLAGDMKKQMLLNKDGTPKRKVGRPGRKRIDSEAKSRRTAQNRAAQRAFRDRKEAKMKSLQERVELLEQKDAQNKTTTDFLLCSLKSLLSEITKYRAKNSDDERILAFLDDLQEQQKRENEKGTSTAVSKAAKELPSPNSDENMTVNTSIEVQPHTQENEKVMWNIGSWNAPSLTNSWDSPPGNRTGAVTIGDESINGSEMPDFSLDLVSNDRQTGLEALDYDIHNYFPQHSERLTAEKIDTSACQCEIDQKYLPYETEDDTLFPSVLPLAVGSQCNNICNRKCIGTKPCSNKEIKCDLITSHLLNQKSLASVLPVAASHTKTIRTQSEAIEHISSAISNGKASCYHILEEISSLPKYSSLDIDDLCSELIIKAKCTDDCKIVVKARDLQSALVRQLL
# Experiment: PBM E-score (8-mer binding enrichment) (E-score (-0.5 to 0.5)); higher = stronger / more preferred TF binding
# Details: protein concentration: 100 nM; construct: GST-full length
# Method: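 Universal 'all 10-mer' protein binding microarrays (Agilent AMADID 015681) probed with GST-tagged S. cerevisiae TFs (full-length or DBD) made by in vitro transcription/translation (PURExpress), about 100-200 nM. Bound TF was detected with fluorescent anti-GST. Each ungapped 8-mer (which stands for itself and its reverse complement) is scored by the PBM enrichment score (E-score), a modified Wilcoxon-Mann-Whitney statistic from -0.5 to +0.5, computed with the Universal PBM Analysis Suite. Scale: above 0.35 generally sequence-specific binding.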
row,Sequence,PBM E-score
1,CGGTGGGC,-0.102
2,CGCATTTA,0.177
3,CCCAGAGG,-0.372
4,ATCCCACC,0.0285
5,CCCGGACG,-0.307
6,ATCACCAA,0.109
7,AGACCGCC,-0.0452
8,ATATCCCG,0.112
9,AGGCGCAA,0.0947
10,TTCCGCAA,0.123
11,ATCCGAAG,0.079
12,AACTAGCA,0.0629
13,GTTGGTCA,0.241
14,ACATCCTG,0.23
15,AGTAATCG,0.179
16,AAACATCT,-0.101
17,GGTATCCA,0.135
18,GCGTTCCC,-0.0561
19,AGACTGCT,-0.028
20,AGATCTGC,0.187
21,ACTTGATC,0.119
22,GGACGTTA,0.0449
23,AGCATAAG,0.131
24,GTCCTACA,0.00675
25,AATCTGTA,0.107

row,Sequence,PBM E-score
1,ATCACATC,0.128
2,AACGGAGG,-0.189
3,AGACGTGC,0.0476
4,GCGTAAGA,0.0299
5,AGCCTGTA,-0.111
6,AACTCTGT,0.0597
7,CGCCTACC,-0.122
8,AAAATCCA,0.0338
9,GACTACCC,-0.0491
10,AATAGGCG,0.133
11,GCGAACTA,-0.0075
12,ACCATCAC,0.00191
13,GGGTACAA,-0.0485
14,CGGCAAAG,-0.00304
15,ACGTTTCA,0.105
16,CGACCGGC,0.133
17,AGCATTGC,0.173
18,ATCTTGGG,-0.0312
19,AACCTGGC,-0.0321
20,CGAGATGA,0.0735
21,CCCCTGGC,-0.366
22,CAGTGAAG,-0.104
23,ACTAATTC,0.306
24,CAAGGTGC,0.0221
25,GTAGAGTA,-0.00497

row,Sequence,PBM E-score
1,GGTCACAA,-0.0946
2,GACTAATC,0.362
3,GTCCCAAC,-0.00293
4,ATCCATAA,0.199
5,AGCATTCA,0.0215
6,AAAGGCCC,-0.223
7,GATGCATC,0.178
8,ACATCAGA,0.0424
9,AGTGATTC,0.11
10,ACGGTAAT,-0.0679
11,AACAATAA,0.211
12,ATCACCAT,0.0725
13,CAACGGGG,-0.0873
14,CCGTCAAG,-0.0183
15,GTATCGAC,0.156
16,ATTCACCG,0.039
17,CATTTAAC,0.103
18,CTCGCCAC,-0.0198
19,CCCAAGGA,-0.143
20,AACCATGT,0.0509
21,GCAACACA,0.129
22,ACCGAATG,-0.0107
23,ACCTCTGA,-0.166
24,GAGAGGGC,-0.361
25,AAACGCCG,0.168

# Taken from above.
# Value of GATGCATC under PBM E-score: 0.178
# Value of CCGTCAAG under PBM E-score: -0.0183
# Value of ACCGAATG under PBM E-score: -0.0107

# (continued)

row,Sequence,PBM E-score
1,AGTCTAAC,-0.148
2,TGGTAACA,-0.0107
3,CTCAGAGC,-0.153
4,GAAAACGA,0.144
5,AAAAAAAT,0.162
6,GAGAAAAC,0.117
7,AAATTACC,0.081
8,AGAGTAGC,-0.144
9,TATCAGAA,0.119
10,TCCGACCA,-0.0796
11,CTGCAGTC,-0.0585
12,AATATAGT,0.281
13,ATATGAAA,0.132
14,ATAATTGG,-0.0135
15,GTATTATA,0.224
16,ATAACCGG,-0.204
17,AGACTATG,-0.104
18,ATGAGTTC,0.0316
19,CATGGTCG,-0.0949
20,GGCAACCC,-0.174
21,AGGCGGCA,-0.163
22,CCTAAGAC,-0.205
23,AACTCGGG,-0.0211
24,AGATGTCG,-0.0881
25,ACCCGCGA,0.0834

row,Sequence,PBM E-score
1,AGTTGTCG,0.0856
2,GAAATGGA,-0.0458
3,ACTATGCT,0.123
4,CAACACTA,0.19
5,AACACATT,0.157
6,CAGGAATG,-0.127
7,CGTGGAGC,0.0027
8,ATCCGTAA,0.073
9,TCGCGCAA,0.27
10,ACAAGGCG,-0.0345
11,TTAAATAA,0.139
12,TGAGTAAA,0.00963
13,ACTTGGAT,0.153
14,GGATAGGA,-0.00441
15,GAGCAGAA,0.0066
16,CGCGCCTA,0.184
17,GGAGAGCA,-0.203
18,CATAGATG,-0.228
19,GAGGGCGC,-0.0389
20,GAGTTAAA,0.0147
21,GGAAGGAC,-0.0619
22,GACGCAGA,0.0101
23,AAATTGCT,0.127
24,CGCAGCAA,-0.0384
25,CCTGGGTC,-0.177

row,Sequence,PBM E-score
1,AGTTGATG,0.0479
2,AAGTACAG,-0.0834
3,ATCTGAAG,-0.139
4,AATCGTTC,0.0436
5,CGTCCAAG,-0.083
6,ATCTTATC,0.19
7,TGTCTAAA,0.177
8,ACCCACAC,0.137
9,GGGCGCTA,-0.179
10,ATCCCAAG,-0.0569
11,ATTTGTTA,0.203
12,GAGATTAA,0.0578
13,CCACAGTA,0.0727
14,ACGGGCAG,-0.0111
15,CATTAATG,0.198
16,AGAGGCTC,-0.143
17,CTTGGTAC,0.183
18,AATATGCC,-0.182
19,CTTTTCAC,0.126
20,CTGATTAA,0.362
21,GGGACTAC,-0.154
22,CAATGCAC,-0.0659
23,CGAGCGGA,-0.0607
24,CAGTAATA,0.249
25,CCTCGGAA,0.152

row,Sequence,PBM E-score
1,CAAGCGAC,-0.0531
2,GCTTAGCA,0.122
3,ACTCATAG,-0.0684
4,CCTCGTGC,-0.0281
5,ATACGTTA,-0.0175
6,AACGATAG,0.0593
7,CTAGCCCC,-0.0928
8,ATCAGAGC,0.0403
9,GCACTAGA,-0.0697
10,ACATGGAT,0.0578
11,AACTGCGT,0.107
12,AAAATTAT,0.285
13,CATCTTTA,0.0991
14,ATAGTCCC,-0.0911
15,ATCCGGAA,0.22
16,AACGACAC,0.00382
17,ACCCTCTA,-0.192
18,GATGAACA,0.139
19,CTTGTTTC,0.029
20,ATCTTCAT,-0.073
21,GTAGTCCA,-0.154
22,CTCCTCAC,-0.203

# Reference: the supplement of paper PMC3334620
